# Test results as given in paper PMC7084908.
# Chains of the proteins cited; added tags and fusions are not shown.
# UniProt Q945P1: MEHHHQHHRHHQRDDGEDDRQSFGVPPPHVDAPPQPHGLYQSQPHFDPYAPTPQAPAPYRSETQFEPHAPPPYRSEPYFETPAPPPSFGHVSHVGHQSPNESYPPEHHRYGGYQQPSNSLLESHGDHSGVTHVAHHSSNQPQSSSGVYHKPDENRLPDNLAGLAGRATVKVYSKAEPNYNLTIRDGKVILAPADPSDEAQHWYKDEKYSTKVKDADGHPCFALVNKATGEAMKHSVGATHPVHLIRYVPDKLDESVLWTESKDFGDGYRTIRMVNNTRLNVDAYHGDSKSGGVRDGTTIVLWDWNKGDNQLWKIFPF
# Molecular target: Recombinant Myc- and His-tagged ArathEULS3 protein (Arabidopsis thaliana) (UniProt Q945P1)
# Assay: affinity purification with mass spectrometry; 100 µg purified Myc-tagged ArathEULS3 immobilised on Myc-Trap beads; 300 µg lysate of 2-week-old A. thaliana seedlings treated with 100 µM ABA for 5 h added for 1 h at 4 °C; washed with 10 mM Tris-HCl pH 7.5, 150 mM NaCl, 0.5 mM EDTA; LC-MS/MS of three replicates, compared with empty beads; only the target purified
row,Binder,binding
1,"50S ribosomal protein L16 (protein, UniProt P56793 1-135) MLSPKRTRFRKQHRGRLKGISSRGNRICFGRYALQTLEPAWITSRQIEAGRRAMTRNVRRGGKIWVRIFPDKPVTVRPAETRMGSGKGSPEYWVAVVKPGKILYEMGGVPENIARKAISIAASKMPIKTQFIISE",binds
2,"50S ribosomal protein L13 (protein, UniProt Q9SYL9 51-241) RGLQVKCEAEPTTTTSLVPANQRWMFDEEEANGPDIWNTTWYPKASDHVNTDKPWFVVDATDKILGRLASTIANHIRGKNLASYTPSVDMGAFVIVVNAEKVAVSGKKRNQKLYRRHSGRPGGMTVETFDQLQQRIPERIVEHAVRGMLPKGRLGRALFNHLKVYKGPDHPHEAQKPLDLPIRDKRIQLQK",binds
3,"Catalase-2 (enzyme, UniProt P25819 1-492) MDPYKYRPASSYNSPFFTTNSGAPVWNNNSSMTVGPRGPILLEDYHLVEKLANFDRERIPERVVHARGASAKGFFEVTHDISNLTCADFLRAPGVQTPVIVRFSTVIHERGSPETLRDPRGFAVKFYTREGNFDLVGNNFPVFFIRDGMKFPDMVHALKPNPKSHIQENWRILDFFSHHPESLNMFTFLFDDIGIPQDYRHMDGSGVNTYMLINKAGKAHYVKFHWKPTCGVKSLLEEDAIRVGGTNHSHATQDLYDSIAAGNYPEWKLFIQIIDPADEDKFDFDPLDVTKTWPEDILPLQPVGRMVLNKNIDNFFAENEQLAFCPAIIVPGIHYSDDKLLQTRVFSYADTQRHRLGPNYLQLPVNAPKCAHHNNHHEGFMNFMHRDEEVNYFPSRYDQVRHAEKYPTPPAVCSGKRERCIIEKENNFKEPGERYRTFTPERQERFIQRWIDALSDPRITHEIRSIWISYWSQADKSLGQKLASRLNVRPSI",binds
4,"50S ribosomal protein L4 (protein, UniProt O50061 50-282) QLATLPILSFEGEKVGETYLDLKAAPEDTARAVVHRAIVTDLNNKRRGTASTLTRGEVRGGGIKPYSQKKTGHARRGSQRTPLRPGGGVVFGPRPKDWSIKINRKEKKLAISTALSSAASAEGGAIVVEEFGEKFEKPKTKDFLAAMQRWGLDPKEKAMFLMIDVDENVAKSSRNIGTLRMLTPRTLNLFDILNADKLVLTPAAVEFLNARYGVDAVEEEDDDEDETEGSEEA",binds
5,"Aminomethyltransferase (enzyme, UniProt O65396 25-408) VSRRYFASEADLKKTALYDFHVAHGGKMVPFAGWSMPIQYKDSIMDSTVNCRENGSLFDVAHMCGLSLKGKDCVPFLETLVVADVAGLAPGTGSLTVFTNEKGGAIDDSVITKVTDEHIYLVVNAGCRDKDLAHIEEHMKAFKSKGGDVSWHIHDERSLLALQGPLAAPVLQHLTKEDLSKLYFGNFQILDINGSTCFLTRTGYTGEDGFEISVPDEHAVDLAKAILEKSEGKVRLTGLGARDSLRLEAGLCLYGNDMEQHISPVEAGLTWAIGKRRRAEGGFLGADVILQQLKDGPTIRRVGFFSSGPPARSHSEVHDESGNKIGEITSGGFSPNLKKNIAMGYVKSGQHKTGTKVKILVRGKPYEGSITKMPFVATKYYKPT",binds
6,"30S ribosomal protein S17 (protein, UniProt P16180 50-149) MKTMQGRVVCATSDKTVAVEVVRLAPHPKYKRRVRMKKKYQAHDPDNQFKVGDVVRLEKSRPISKTKSFVALPVIARAARKAEAGGDELLGLPLESQQPA",binds
7,"30S ribosomal protein S20 (protein, UniProt Q9ASV6 80-202) AAAPTKKADSAAKRARQAEKRRVYNKSKKSEARTRMKKVLEALEGLKKKTDAQADEIVTVEKLIGEAYSAIDKAVKVKALHKNTGARRKSRLARRKKAVEIHHGWYVPDAAAAAPSEAVPMAA",binds
8,"Probable ribose-5-phosphate isomerase 3 (enzyme, UniProt Q9S726 40-276) SVALSQDDLKKLAAEKAVEAIKPGMVLGLGTGSTAAFAVDQIGKLLSSGELYDIVGIPTSKRTEEQARSLGIPLVGLDTHPRIDLAIDGADEVDPNLDLVKGRGGALLREKMVEAVADKFIVVADDTKLVTGLGGSGLAMPVEVVQFCWNFNLIRLQDLFKEFGCESKLRVDGDGKPYVTDNSNYIIDLYFKTPLKDGFAAAKEIGKFQGVVEHGLFLGMATSVIIAGKNGVEVMTK",binds
9,"Glycine-rich RNA-binding protein 7 AtGRP7 (protein, UniProt Q03250 1-176) MASGDVEYRCFVGGLAWATDDRALETAFAQYGDVIDSKIINDRETGRSRGFGFVTFKDEKAMKDAIEGMNGQDLDGRSITVNEAQSRGSGGGGGHRGGGGGGYRSGGGGGYSGGGGSYGGGGGRREGGGGYSGGGGGYSSRGGGGGSYGGGRREGGGGYGGGEGGGYGGSGGGGGW",binds
10,"DNA repair RAD52-like protein 2, chloroplastic (protein, UniProt Q9FIJ4 41-199) SGGGVGGGDAGKKKAVPNSNYVVPIDKFSSSSSITRPLIEILRDLNKKIPDNIVKSHDPPSTSAATSGFIPWYHANRMLSFYAPGWCGEVRDVIFSENGNVTVVYRLTIRGSDGEAHRESTGTVTTTDDHIEDPVTAAEEIAFCRACARFGLGLYLYHE",binds

# Now from value to binder:
row,binding,Binder
1,binds,"Succinate--CoA ligase [ADP-forming] subunit beta (enzyme, UniProt O82662 27-421) LNIHEYQGAELMGKYGVNVPKGVAASSLEEVKKAIQDVFPNESELVVKSQILAGGRGLGTFKSGLKGGVHIVKRDEAEEIAGKMLGQVLVTKQTGPQGKVVSKVYLCEKLSLVNEMYFSIILDRKSAGPLIIACKKGGTSIEDLAEKFPDMIIKVPIDVFAGITDEDAAKVVDGLAPKAADRKDSIEQVKKLYELFRKTDCTMLEINPLAETSTNQLVAADAKLNFDDNAAFRQKEVFAMRDPTQEDPREVAAAKVDLNYIGLDGEIGCMVNGAGLAMATMDIIKLHGGTPANFLDVGGNASEHQVVEAFKILTSDDKVKAILVNIFGGIMKCDVIASGIVNAAKEVALKVPVVVRLEGTNVEQGKRILKESGMKLITADDLDDAAEKAVKALAH"
2,binds,"Catalase-3 (enzyme, UniProt Q42547 1-492) MDPYKYRPSSAYNAPFYTTNGGAPVSNNISSLTIGERGPVLLEDYHLIEKVANFTRERIPERVVHARGISAKGFFEVTHDISNLTCADFLRAPGVQTPVIVRFSTVVHERASPETMRDIRGFAVKFYTREGNFDLVGNNTPVFFIRDGIQFPDVVHALKPNPKTNIQEYWRILDYMSHLPESLLTWCWMFDDVGIPQDYRHMEGFGVHTYTLIAKSGKVLFVKFHWKPTCGIKNLTDEEAKVVGGANHSHATKDLHDAIASGNYPEWKLFIQTMDPADEDKFDFDPLDVTKIWPEDILPLQPVGRLVLNRTIDNFFNETEQLAFNPGLVVPGIYYSDDKLLQCRIFAYGDTQRHRLGPNYLQLPVNAPKCAHHNNHHEGFMNFMHRDEEINYYPSKFDPVRCAEKVPTPTNSYTGIRTKCVIKKENNFKQAGDRYRSWAPDRQDRFVKRWVEILSEPRLTHEIRGIWISYWSQADRSLGQKLASRLNVRPSI"
3,binds,"Xyloglucan endotransglucosylase /hydrolase (enzyme, UniProt Q39099 25-296) IPPRKAIDVPFGRNYVPTWAFDHQKQFNGGSELQLILDKYTGTGFQSKGSYLFGHFSMHIKLPAGDTAGVVTAFYLSSTNNEHDEIDFEFLGNRTGQPAILQTNVFTGGKGNREQRIYLWFDPSKAYHTYSILWNMYQIVFFVDNIPIRTFKNAKDLGVRFPFNQPMKLYSSLWNADDWATRGGLEKTNWANAPFVASYKGFHIDGCQASVEAKYCATQGRMWWDQKEFRDLDAEQWRRLKWVRMKWTIYNYCTDRTRFPVMPAECKRDRDA"
4,binds,"30S ribosomal protein S9 (protein, UniProt Q9XJ27 53-208) TVSAPPEEEEIVELKKYVKSRLPGGFAAQKIIGTGRRKCAIARVVLQEGTGKVIINYRDAKEYLQGNPLWLQYVKVPLVTLGYENSYDIFVKAHGGGLSGQAQAITLGVARALLKVSADHRSPLKKEGLLTRDARVVERKKAGLKKARKAPQFSKR"

# These are yes or no findings as the source states them, for the method shown. Binding seen in cells or lysates may run through a third protein. Here binding means that the protein was enriched with, or labelled near, the bait; the list need not be complete. Sequences can lack the tags named with a protein.
